Source: PMC3579733

Key:
[1] = target: T1, CheW1 (Halobacterium salinarum R1 (DSM 671)) (UniProt Q9HQW5); assay: affinity purification with mass spectrometry; one-step and two-step bait fishing taken together (final data set; both methods applied to all baits); the place does not tell which of the two gave the result
T1 sequence: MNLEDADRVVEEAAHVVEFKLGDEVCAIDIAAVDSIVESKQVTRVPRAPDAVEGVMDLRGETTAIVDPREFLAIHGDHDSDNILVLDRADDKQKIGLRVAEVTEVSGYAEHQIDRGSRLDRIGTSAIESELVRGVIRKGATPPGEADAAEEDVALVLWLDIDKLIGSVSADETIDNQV

[2] = target: CheD (Halobacterium salinarum R1 (DSM 671)); assay: as above
[3] = target: T2, CheY (Halobacterium salinarum R1 (DSM 671)) (UniProt B0R4K1); assay: as above
T2 sequence: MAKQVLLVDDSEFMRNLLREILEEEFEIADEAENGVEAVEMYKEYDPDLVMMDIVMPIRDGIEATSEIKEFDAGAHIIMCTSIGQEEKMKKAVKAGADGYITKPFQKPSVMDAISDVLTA

[4] = target: OE4643R (Halobacterium salinarum R1 (DSM 671)); assay: as above
[5] = target: T3, CheW2 (Halobacterium salinarum R1 (DSM 671)) (UniProt Q9HQY8); assay: affinity purification with mass spectrometry; two-step bait fishing: bait-CBD bound to a cellulose column and stringently washed (CFE + 1% NP40 + 20% ethylene glycol), then incubated with lysate of wild type cells (12C6-leucine); plain CBD column with 13C6-leucine lysate as control; SILAC, association score > 7 counts as interaction; only the target purified
T3 sequence: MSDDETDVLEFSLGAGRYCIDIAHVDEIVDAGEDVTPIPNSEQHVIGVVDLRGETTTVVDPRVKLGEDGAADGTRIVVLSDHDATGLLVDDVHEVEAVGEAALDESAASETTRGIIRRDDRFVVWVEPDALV

[6] = target: T4, CheA (Halobacterium salinarum R1 (DSM 671)) (UniProt B0R4J9); assay: affinity purification with mass spectrometry; one-step bait fishing: lysates of the bait-CBD strain (13C6-leucine) and of the bait-control strain without CBD (12C6-leucine) mixed, one cellulose column, CFE buffer (3 M KCl, 1 M NaCl, 400 mM NH4Cl, 40 mM MgCl2, 10 mM Tris/HCl pH 7.5), washes with 0.5% NP40, room temperature; SILAC, association score > 7 counts as interaction
T4 sequence: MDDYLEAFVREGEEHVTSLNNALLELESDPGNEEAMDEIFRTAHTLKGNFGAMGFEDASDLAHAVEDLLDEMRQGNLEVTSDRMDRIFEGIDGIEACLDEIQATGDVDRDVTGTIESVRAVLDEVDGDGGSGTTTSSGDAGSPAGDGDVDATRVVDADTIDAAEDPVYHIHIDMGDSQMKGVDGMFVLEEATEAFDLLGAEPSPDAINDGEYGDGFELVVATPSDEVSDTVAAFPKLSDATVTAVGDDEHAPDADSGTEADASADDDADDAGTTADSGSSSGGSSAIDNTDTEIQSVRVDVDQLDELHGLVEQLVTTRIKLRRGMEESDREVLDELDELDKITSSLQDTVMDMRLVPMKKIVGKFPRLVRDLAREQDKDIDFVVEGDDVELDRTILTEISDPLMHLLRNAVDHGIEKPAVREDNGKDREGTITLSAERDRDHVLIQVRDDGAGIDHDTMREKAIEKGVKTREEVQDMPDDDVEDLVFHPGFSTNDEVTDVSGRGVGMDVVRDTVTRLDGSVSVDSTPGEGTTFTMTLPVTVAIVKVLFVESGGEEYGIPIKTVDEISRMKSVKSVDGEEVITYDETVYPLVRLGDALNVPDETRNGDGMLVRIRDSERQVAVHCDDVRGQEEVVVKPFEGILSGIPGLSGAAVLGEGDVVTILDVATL

[7] = target: T1, CheW1 (Halobacterium salinarum R1 (DSM 671)); assay: affinity purification with mass spectrometry; comparative two-step bait fishing: CheW1 on one cellulose column with light (12C) lysate, CheW2 on a second column with heavy (13C) lysate, the second CheW as control instead of plain CBD; only the target purified
[8] = target: T3, CheW2 (Halobacterium salinarum R1 (DSM 671)); assay: as above

B1: CosT (receptor, UniProt B0R6A7 1-810)
chain: MSEPTADAGDNSPSSTDTAPLDRVKAIALLPLRSYLVKFAVALLVILVIIAAGGFWVQADATATLEANTEQQLEQEAVSDATEIGDWLERNEQSVLIASNNPRLGFNTTAADKQAYVTQLVAAELDADRIADVHVADPTVGGASDARIVASTDEDARGTRVSADTHPWVDRTRSIGRDTVVSTNPYRTAGGQRVVSSMSVAADLTHVLVVEYTAGDLSDQFGAGIDGTFTQVVRPTSDATAVLFSDAGTDAVGQPYIPDRSQSEIPALDSATEQGQFTNTPTKDSVLDREYVAAYTTVPGKNWVVVKHAPSESAFALSNQIRTGILGFILVALVGVVLVGGTIGRNTAAAVQSLSAAAAEIEAGNYDVDVASSRRDEIGQLFASIGSMRDALVTQIDEAEAAREQATEAQQDAEAERERAEDARERAEDAKADAEALAAELEAQAERYSDVMAACADGDLTRRMPADDTDNEAMAAIAASFNEMLAQWEHTIIDIQEFADAVATASEEAEVGAADAERASGQVSESVQEIAGAADEQRNMLDTVSGEMTDLSAAIEEVAASADSVAEHSHQTAEIARDGEQTAEDAIERSLTVQEAIDATVQNVEALDDQMAEISEIVDLISDIAEQTNMLALNANIEAARADKSGDGFAVVADEVKDLAEETQESAGDIERRITEVQSQTTATVAEARAAEESMDAGIDAVEEVVDAFTAVSDHADETDTGVQEISDTTDDQAASTEEAVSMTEEVADLSDSTAGEAQSVSAAAEEQAASMSEISDSVESLSGQAEQLKALLSEFEVDADRDVTPTQTD
In the case of B1, the binding [1] is reported as “binds”, the binding [2] is reported as “no binding” and the binding [3] is reported as “binds”. For the same binder, the binding [4] was “no binding”, the binding [5] was “binds” and the binding [6] was “binds”. The binding [7] was “binds” and the binding [8] was “binds”.

B2: Htr6 (receptor, UniProt B0R461 1-789)
chain: MSDGITGALRNAASVVAPDAIRRRFGAKFAVAFIVVLVVIAGAGVFAFQSTETTVEHQTTRQLAESNQLEADAIGAWMEQQRTHARSVSQDEALRDDRRAAPYILLKDQLLPADVVSMHLVNETRGTVVASTELAIEGRSLAELDAPWTTAAVPEGPGNDSAVWATEQSYRSPVLNDEPVMAFASSVPKREGAHLVVVTRIQPQVDRLSDANSTRRTTILNTGDEPVLDSNSRFDAGALTDSIAAVRNDTTAATTTVSNGRVYALSATPHTDWVTVTSVDTGEAFAVRDTVGQTVTVLVVLAVISLAIVGIALGRHTVTPLKRLRNRAQDIESGTFDVDLSTRRIDEVGRLYGSFDDMRVSLQDRIQEAEAAVEEANAAKAEAEELRTDAEDAQAEAERAKATAEAASERLQERAADYSEVMQAVADGDLTERLDEDADEEAMRAVATEFNAMLDGLEATIAQVAGFADEVADETLQVATGAEEIETTSQTVSERIQEIADGAIQQHDDLERAAGEMDELSASIQEVAASSATVAETAADAVERGEAGRDAAESAIDDMAEIESLSADAVDQILALQERMSDIGDIIEFITDIAEQTNMLALNANIEAARADKDGDGFAVVANEVKDLAEETKQAAADIESEIQAVQAETDETVADIRATSEHIDDGVSTVERAAAAIEDTVDAIEDANHGIQEISDATEDQADATQSVVRRVDDVADISQHVTEDAEQVSAAAEEQSASVAEIARSADDLRDRADALATTVNQFETRADADEPDADTTVDASADDTGD
B2 was tested, and the binding [1] was “binds”, the binding [2] was “no binding” and the binding [3] was “binds”. The binding [4] was “no binding”, the binding [5] was “binds” and the binding [6] was “binds”. For the same binder, the binding [7] was “binds” and the binding [8] was “binds”.

No constants are given. Whether binding was seen depends on the method and setting. Binding seen in cells or lysates may run through a third protein. Here binding means that the protein was enriched with, or labelled near, the bait; the list need not be complete. For some of these results: No binding means not detected with the bait.
